In PMC7817830:
These are yes or no findings as the source states them, for the method shown. In cells and extracts the contact can be indirect. Some binding calls cover weakened binding; strength is not graded here. Blank lines part the entries; values can stand above or below the substance they belong to.

Sequences of proteins named here, by UniProt entry; tags and fusion partners are left off.
UniProt P14618: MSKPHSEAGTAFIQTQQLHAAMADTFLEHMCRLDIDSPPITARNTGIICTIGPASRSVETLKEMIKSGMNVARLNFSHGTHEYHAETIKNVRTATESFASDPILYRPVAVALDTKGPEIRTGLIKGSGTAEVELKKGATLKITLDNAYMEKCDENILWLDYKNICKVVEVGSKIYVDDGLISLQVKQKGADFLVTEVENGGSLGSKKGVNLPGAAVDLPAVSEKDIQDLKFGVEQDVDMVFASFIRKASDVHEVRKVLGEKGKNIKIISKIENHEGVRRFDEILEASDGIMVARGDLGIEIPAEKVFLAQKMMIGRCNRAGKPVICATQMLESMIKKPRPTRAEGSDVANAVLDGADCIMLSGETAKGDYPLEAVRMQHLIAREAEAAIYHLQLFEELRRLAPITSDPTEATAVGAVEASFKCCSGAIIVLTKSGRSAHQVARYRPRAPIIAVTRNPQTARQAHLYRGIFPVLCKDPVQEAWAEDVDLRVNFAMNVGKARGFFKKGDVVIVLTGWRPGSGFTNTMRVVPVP
UniProt Q01196: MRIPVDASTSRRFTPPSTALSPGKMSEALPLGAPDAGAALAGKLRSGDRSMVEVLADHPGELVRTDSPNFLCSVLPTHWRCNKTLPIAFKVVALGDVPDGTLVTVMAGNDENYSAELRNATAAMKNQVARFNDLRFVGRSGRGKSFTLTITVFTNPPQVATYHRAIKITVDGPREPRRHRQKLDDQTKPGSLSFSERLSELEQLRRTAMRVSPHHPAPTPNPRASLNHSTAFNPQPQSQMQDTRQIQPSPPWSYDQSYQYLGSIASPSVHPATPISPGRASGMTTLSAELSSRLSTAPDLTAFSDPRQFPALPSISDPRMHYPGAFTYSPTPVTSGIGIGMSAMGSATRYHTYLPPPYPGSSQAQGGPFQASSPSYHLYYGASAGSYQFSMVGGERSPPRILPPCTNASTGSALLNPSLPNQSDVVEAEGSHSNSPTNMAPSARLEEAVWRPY

Key:
Assay in all cases: co-IP; whole-cell extracts of transfected NB4 cells, overnight with the antibody (anti-Flag, anti-PKM2 or anti-HA) and protein A/G plus-agarose at 4 °C; wash 50 mM Tris-HCl pH 7.6, 300 mM NaCl, 1 mM EDTA, 0.5% Nonidet P-40, 10% glycerol; western blot
[1] = molecular target: Flag-PKM2 expressed in NB4 cells (UniProt P14618)
[2] = molecular target: endogenous PKM2 of NB4 cells (human (endogenous in NB4)) (UniProt P14618)
[3] = molecular target: Flag-tagged RUNX1 (Runt-related transcription factor 1), full length (human) (UniProt Q01196)
[4] = molecular target: HA-RUNX1 expressed in NB4 cells (human) (UniProt Q01196)

binding [1]: binds
Substance: WT RUNX1 co-expressed with Flag-PKM2 in NB4 cells (from UniProt Q01196 1-453)

binding [2]: binds
Substance: Flag-tagged RUNX1 (Runt-related transcription factor 1), full length (from UniProt Q01196 1-453)

binding [3]: binds
Substance: endogenous PKM2 of NB4 cells (from UniProt P14618 1-531) (enzyme)

binding [4]: binds
Substance: WT PKM2 co-expressed with HA-RUNX1 in NB4 cells (from UniProt P14618 1-531) (enzyme)
